Drawing on publication PMC9205938, this text covers binding for four molecules.

Sequences of proteins named here, by UniProt entry; tags and fusion partners are left off.
UniProt Q2KHR3: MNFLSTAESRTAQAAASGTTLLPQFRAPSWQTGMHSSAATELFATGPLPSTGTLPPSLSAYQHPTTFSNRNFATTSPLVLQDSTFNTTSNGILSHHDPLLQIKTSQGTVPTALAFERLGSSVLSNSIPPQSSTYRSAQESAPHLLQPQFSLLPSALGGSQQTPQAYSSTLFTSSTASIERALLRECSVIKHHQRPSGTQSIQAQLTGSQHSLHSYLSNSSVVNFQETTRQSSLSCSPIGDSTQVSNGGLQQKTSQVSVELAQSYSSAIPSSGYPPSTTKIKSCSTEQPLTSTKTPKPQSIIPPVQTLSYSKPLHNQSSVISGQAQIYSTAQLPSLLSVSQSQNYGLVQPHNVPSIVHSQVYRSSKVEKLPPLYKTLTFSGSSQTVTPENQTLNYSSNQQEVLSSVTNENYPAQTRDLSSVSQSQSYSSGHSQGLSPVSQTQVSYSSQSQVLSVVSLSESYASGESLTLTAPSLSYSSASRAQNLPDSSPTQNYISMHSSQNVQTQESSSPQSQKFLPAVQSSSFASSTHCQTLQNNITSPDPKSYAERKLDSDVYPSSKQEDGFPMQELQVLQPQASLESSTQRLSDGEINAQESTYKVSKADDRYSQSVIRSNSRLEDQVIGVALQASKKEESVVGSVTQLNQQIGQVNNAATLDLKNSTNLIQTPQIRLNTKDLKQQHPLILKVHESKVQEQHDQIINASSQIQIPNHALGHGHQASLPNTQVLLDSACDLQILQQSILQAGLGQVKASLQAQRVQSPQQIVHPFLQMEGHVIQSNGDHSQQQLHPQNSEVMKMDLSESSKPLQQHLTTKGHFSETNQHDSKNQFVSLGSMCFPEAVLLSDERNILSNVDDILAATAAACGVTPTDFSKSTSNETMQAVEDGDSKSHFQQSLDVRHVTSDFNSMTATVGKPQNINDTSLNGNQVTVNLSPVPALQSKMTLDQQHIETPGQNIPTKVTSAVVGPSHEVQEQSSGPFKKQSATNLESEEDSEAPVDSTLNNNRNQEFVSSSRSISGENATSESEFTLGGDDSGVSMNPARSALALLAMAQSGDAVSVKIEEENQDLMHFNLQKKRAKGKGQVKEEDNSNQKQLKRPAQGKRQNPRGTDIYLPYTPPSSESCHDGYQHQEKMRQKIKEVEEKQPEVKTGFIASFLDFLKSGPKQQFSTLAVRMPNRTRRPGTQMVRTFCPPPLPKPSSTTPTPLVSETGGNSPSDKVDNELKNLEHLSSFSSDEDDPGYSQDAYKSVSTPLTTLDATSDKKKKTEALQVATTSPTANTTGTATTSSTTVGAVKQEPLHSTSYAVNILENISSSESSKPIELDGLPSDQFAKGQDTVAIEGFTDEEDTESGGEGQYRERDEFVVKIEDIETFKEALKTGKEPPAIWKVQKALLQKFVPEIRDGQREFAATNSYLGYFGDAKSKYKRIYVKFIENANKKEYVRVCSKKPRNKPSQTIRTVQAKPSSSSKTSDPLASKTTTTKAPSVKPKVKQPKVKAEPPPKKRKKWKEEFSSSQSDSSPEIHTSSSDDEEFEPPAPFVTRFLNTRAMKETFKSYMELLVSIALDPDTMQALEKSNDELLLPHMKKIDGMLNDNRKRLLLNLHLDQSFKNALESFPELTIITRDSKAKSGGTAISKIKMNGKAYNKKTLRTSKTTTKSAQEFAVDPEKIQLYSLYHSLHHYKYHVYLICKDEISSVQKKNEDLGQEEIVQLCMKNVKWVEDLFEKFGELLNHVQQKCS
UniProt Q06609: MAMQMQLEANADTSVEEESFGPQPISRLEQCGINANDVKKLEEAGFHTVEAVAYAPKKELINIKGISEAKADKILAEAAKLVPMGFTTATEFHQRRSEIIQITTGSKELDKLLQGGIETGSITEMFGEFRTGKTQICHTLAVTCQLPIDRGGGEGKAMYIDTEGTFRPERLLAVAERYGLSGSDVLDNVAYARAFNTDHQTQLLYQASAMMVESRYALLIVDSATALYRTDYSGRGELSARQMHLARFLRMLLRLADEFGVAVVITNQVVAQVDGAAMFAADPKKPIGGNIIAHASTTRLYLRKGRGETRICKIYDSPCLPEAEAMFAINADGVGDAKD
UniProt P51587: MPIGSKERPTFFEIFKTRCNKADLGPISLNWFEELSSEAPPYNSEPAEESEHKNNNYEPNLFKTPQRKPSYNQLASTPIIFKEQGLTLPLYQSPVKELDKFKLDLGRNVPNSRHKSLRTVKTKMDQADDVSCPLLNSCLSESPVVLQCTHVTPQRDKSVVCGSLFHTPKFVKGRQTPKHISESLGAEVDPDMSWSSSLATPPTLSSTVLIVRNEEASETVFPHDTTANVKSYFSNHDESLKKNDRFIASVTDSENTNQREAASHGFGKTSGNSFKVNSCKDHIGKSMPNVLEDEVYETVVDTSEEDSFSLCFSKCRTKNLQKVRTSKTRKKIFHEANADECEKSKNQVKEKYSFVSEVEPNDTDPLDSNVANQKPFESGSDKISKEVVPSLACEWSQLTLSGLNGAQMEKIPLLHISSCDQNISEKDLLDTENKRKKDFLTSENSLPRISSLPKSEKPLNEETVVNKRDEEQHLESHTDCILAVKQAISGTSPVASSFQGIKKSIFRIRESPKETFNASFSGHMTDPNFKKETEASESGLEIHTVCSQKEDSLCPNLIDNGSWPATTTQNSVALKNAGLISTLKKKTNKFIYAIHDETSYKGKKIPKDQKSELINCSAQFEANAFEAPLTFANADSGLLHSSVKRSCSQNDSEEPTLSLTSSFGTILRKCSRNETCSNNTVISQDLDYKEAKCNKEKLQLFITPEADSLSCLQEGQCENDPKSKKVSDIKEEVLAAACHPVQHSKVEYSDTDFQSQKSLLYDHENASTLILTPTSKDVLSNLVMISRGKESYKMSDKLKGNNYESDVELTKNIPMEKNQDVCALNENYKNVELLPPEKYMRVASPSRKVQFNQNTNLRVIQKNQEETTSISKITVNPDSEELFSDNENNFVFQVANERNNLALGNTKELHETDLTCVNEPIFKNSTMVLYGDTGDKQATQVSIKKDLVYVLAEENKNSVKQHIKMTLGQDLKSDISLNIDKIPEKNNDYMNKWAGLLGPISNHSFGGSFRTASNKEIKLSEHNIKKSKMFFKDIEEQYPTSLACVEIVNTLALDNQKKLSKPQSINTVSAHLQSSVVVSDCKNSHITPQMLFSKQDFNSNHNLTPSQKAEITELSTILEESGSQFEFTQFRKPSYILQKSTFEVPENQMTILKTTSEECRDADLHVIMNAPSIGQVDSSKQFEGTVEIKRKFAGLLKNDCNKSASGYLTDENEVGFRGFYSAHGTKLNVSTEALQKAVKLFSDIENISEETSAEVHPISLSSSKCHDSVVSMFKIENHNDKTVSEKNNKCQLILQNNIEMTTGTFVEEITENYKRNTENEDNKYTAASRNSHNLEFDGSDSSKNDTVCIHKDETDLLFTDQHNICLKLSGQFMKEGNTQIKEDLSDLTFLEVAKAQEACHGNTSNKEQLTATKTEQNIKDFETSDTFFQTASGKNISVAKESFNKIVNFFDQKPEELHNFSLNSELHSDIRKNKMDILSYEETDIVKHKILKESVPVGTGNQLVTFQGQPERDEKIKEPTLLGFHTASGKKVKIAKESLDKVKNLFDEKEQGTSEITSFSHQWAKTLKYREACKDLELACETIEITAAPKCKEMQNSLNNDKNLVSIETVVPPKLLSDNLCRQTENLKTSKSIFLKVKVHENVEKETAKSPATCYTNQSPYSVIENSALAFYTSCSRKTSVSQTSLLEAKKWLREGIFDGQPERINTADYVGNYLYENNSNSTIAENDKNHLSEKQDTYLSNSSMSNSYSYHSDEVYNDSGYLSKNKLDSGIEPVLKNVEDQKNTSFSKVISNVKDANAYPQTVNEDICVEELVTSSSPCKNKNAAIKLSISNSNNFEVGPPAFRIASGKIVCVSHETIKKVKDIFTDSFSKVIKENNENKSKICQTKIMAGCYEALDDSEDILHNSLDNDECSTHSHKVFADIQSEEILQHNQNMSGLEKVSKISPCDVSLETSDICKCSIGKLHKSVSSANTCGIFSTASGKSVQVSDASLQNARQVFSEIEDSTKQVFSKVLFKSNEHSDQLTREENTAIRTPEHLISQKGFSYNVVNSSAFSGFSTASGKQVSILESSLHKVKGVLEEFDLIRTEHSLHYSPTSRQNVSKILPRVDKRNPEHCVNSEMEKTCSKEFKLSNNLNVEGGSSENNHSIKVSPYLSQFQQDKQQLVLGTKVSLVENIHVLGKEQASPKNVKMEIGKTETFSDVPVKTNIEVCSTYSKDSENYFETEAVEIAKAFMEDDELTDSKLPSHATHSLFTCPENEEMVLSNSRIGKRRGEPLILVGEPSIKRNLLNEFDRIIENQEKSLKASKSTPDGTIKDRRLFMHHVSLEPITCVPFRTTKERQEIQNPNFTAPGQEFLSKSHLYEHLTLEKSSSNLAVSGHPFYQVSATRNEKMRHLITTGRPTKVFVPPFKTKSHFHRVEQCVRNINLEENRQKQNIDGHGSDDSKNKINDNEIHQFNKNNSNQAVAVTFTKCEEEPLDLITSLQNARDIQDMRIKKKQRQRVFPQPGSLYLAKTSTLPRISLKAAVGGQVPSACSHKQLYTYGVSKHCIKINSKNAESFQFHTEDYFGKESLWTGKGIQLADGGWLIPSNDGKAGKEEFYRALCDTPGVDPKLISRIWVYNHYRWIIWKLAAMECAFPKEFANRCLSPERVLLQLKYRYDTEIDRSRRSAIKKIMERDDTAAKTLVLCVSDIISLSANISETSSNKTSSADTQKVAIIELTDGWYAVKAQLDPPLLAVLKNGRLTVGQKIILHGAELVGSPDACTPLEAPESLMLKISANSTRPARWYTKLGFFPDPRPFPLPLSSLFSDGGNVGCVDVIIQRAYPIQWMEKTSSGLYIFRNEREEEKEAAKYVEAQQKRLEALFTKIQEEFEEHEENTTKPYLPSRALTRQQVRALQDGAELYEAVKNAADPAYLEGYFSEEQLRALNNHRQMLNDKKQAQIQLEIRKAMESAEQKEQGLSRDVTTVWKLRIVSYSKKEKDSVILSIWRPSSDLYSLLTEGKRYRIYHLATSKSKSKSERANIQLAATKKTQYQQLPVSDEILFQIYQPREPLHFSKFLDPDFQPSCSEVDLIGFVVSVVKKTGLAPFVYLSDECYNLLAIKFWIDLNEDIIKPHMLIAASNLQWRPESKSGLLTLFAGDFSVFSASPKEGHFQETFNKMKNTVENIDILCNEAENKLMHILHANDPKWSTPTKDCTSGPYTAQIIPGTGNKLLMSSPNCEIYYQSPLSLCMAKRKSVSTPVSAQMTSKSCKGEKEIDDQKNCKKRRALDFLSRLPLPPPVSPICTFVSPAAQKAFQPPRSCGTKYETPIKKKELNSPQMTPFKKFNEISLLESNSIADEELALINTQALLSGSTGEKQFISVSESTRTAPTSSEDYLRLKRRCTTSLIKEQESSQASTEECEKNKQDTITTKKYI

No constants are given. Whether binding was seen depends on the method and setting. In cells and extracts the contact can be indirect. These calls come from enrichment with a bait or labelling near it, and not all partners need be listed. No binding means not detected with the bait. Tags and fused reporters may be left off the sequences shown.

The labels stand for the following.
T1: FLAG-tagged full length ZFP281 (UniProt Q99LI5)
T1 sequence: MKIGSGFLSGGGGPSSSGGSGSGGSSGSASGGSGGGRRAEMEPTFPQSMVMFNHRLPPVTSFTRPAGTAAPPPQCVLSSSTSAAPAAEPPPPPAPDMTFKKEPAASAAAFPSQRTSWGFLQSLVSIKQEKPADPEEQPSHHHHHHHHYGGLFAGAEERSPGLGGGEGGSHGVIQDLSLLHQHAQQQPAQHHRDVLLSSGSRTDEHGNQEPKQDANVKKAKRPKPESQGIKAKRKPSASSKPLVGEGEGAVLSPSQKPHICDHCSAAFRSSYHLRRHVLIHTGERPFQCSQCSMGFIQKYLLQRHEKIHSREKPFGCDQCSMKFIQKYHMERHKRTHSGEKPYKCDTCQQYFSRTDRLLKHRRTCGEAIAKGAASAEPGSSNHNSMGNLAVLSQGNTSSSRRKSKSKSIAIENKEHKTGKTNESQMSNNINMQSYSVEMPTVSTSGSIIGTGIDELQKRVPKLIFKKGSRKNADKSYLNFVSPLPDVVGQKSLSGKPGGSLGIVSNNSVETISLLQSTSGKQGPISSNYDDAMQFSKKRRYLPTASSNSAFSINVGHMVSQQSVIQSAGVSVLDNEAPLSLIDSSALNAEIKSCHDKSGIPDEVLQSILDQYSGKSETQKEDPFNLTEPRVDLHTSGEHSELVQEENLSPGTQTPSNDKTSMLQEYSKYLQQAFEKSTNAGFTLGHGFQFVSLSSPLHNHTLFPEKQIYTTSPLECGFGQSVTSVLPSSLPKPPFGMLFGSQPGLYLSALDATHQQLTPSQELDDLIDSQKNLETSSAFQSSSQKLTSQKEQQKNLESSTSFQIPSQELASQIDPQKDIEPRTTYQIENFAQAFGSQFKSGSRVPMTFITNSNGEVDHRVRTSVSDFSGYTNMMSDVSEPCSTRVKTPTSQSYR

B1: EMSY in 293 cells (protein, UniProt Q7Z589 1-1322)
chain: MPVVWPTLLDLSRDECKRILRKLELEAYAGVISALRAQGDLTKEKKDLLGELSKVLSISTERHRAEVRRAVNDERLTTIAHNMSGPNSSSEWSIEGRRLVPLMPRLVPQTAFTVTANAVANAAIQHNASLPVPAETGSKEVVCYSYTSTTSTPTSTPVPSGSIATVKSPRPASPASNVVVLPSGSTVYVKSVSCSDEDEKPRKRRRTNSSSSSPVVLKEVPKAVVPVSKTITVPVSGSPKMSNIMQSIANSLPPHMSPVKITFTKPSTQTTNTTTQKVIIVTTSPSSTFVPNILSKSHNYAAVTKLVPTSVIASTTQKPPVVITASQSSLVSNSSSGSSSSTPSPIPNTVAVTAVVSSTPSVVMSTVAQGVSTSAIKMASTRLPSPKSLVSAPTQILAQFPKQHQQSPKQQLYQVQQQTQQQVAQPSPVSHQQQPQQSPLPPGIKPTIQIKQESGVKIITQQVQPSKILPKPVTATLPTSSNSPIMVVSSNGAIMTTKLVTTPTGTQATYTRPTVSPSIGRMAATPGAATYVKTTSGSIITVVPKSLATLGGKIISSNIVSGTTTKITTIPMTSKPNVIVVQKTTGKGTTIQGLPGKNVVTTLLNAGGEKTIQTVPTGAKPAILTATRPITKMIVTQPKGIGSTVQPAAKIIPTKIVYGQQGKTQVLIKPKPVTFQATVVSEQTRQLVTETLQQASRVAEAGNSSIQEGKEEPQNYTDSSSSSTESSQSSQDSQPVVHVIASRRQDWSEHEIAMETSPTIIYQDVSSESQSATSTIKALLELQQTTVKEKLESKPRQPTIDLSQMAVPIQMTQEKRHSPESPSIAVVESELVAEYITTERTDEGTEVAFPLLVSHRSQPQQPSQPQRTLLQHVAQSQTATQTSVVVKSIPASSPGAITHIMQQALSSHTAFTKHSEELGTEEGEVEEMDTLDPQTGLFYRSALTQSQSAKQQKLSQPPLEQTQLQVKTLQCFQTKQKQTIHLQADQLQHKLPQMPQLSIRHQKLTPLQQEQAQPKPDVQHTQHPMVAKDRQLPTLMAQPPQTVVQVLAVKTTQQLPKLQQAPNQPKIYVQPQTPQSQMSLPASSEKQTASQVEQPIITQGSSVTKITFEGRQPPTVTKITGGSSVPKLTSPVTSISPIQASEKTAVSDILKMSLMEAQIDTNVEHMIVDPPKKALATSMLTGEAGSLPSTHMVVAGMANSTPQQQKCRESCSSPSTVGSSLTTRKIDPPAVPATGQFMRIQNVGQKKAEESPAEIIIQAIPQYAIPCHSSSNVVVEPSGLLELNNFTSQQLDDEETAMEQDIDSSTEDGTEPSPSQSSAERS

The test deals with T1, FLAG-tagged full length ZFP281. As to the kind of experiment: affinity purification with mass spectrometry; FLAG-ZFP281 induced in 293 Flp-in-TRex cells; nuclear extract at 300 mM NaCl, FLAG-affinity purification in the presence of benzonase; SDS-PAGE, silver staining, mass spectrometry.
On to “QSER1 in 293 cells (from UniProt Q2KHR3 1-1735)”, for which the binding entry was “binds”.
The entry for “homologous recombinase RAD51 in 293 cells (from UniProt Q06609 1-339)” is “no binding”; for “BRCA2 in 293 cells (from UniProt P51587 1-3418)” it is “binds”.
As for B1, the binding entry is on record as “binds”.
